# Assay results published in the supplement of paper PMC8728848.
# Some of the results follow.
# Key:
# Experiment in all cases: glycan array binding signal (z-score within array); higher = stronger binding
# Conditions in all cases: glycan notation: IUPAC condensed, linker removed
# [1] = biological target: Neu5Ac(a2-3)Gal(b1-3)GalNAc
# How it was run: (§1)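 Glycan array data came from 3228 arrays in the Consortium for Functional Glycomics database, and only arrays with an available protein sequence were kept. Glycan names were put into IUPAC-condensed notation, and columns mapping to the same glycan were averaged. The binding signal is a within-array Z-score, averaged across arrays of one protein sequence run at different concentrations or buffers and across linkers. A negative Z-score can be read as non-binding.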
# [2] = biological target: Neu5Ac(a2-3)Gal(b1-3)GalNAc(b1-3)Gal(a1-4)Gal(b1-4)Glc
# How it was run: as §1
# [3] = biological target: Neu5Ac(a2-3)Gal(b1-3)GalNAc(b1-4)[Neu5Ac(a2-3)]Gal(b1-4)Glc
# How it was run: as §1
# [4] = biological target: Neu5Ac(a2-3)Gal(b1-3)GalNAc(b1-4)[Neu5Ac(a2-8)Neu5Ac(a2-3)]Gal(b1-4)Glc
# How it was run: as §1
# [5] = biological target: Neu5Ac(a2-3)Gal(b1-3)GalNAc6S
# How it was run: as §1
# [6] = biological target: Neu5Ac(a2-3)Gal(b1-3)GlcNAc
# How it was run: as §1
# [7] = biological target: Neu5Ac(a2-3)Gal(b1-3)GlcNAc(b1-2)Man
# How it was run: as §1
# [8] = biological target: Neu5Ac(a2-3)Gal(b1-3)GlcNAc(b1-2)Man(a1-3)[GlcNAc(b1-4)][Neu5Ac(a2-3)Gal(b1-3)GlcNAc(b1-2)Man(a1-6)]Man(b1-4)GlcNAc(b1-4)GlcNAc
# How it was run: as §1
# [9] = biological target: Neu5Ac(a2-3)Gal(b1-3)GlcNAc(b1-2)Man(a1-3)[Neu5Ac(a2-3)Gal(b1-3)GlcNAc(b1-2)Man(a1-6)]Man(b1-4)GlcNAc(b1-4)GlcNAc
# How it was run: as §1
# [10] = biological target: Neu5Ac(a2-3)Gal(b1-3)GlcNAc(b1-3)Gal(b1-3)GlcNAc
# How it was run: as §1
# [11] = biological target: Neu5Ac(a2-3)Gal(b1-3)GlcNAc(b1-3)Gal(b1-4)GlcNAc
# How it was run: as §1
# [12] = biological target: Neu5Ac(a2-3)Gal(b1-3)GlcNAc(b1-3)GalNAc
# How it was run: as §1
# [13] = biological target: Neu5Ac(a2-3)Gal(b1-3)GlcNAc(b1-4)Gal(b1-4)Glc
# How it was run: as §1
# [14] = biological target: Neu5Ac(a2-3)Gal(b1-3)GlcNAc(b1-6)GalNAc
# How it was run: as §1
# [15] = biological target: Neu5Ac(a2-3)Gal(b1-3)GlcNAc6S
# How it was run: as §1
# [16] = biological target: Neu5Ac(a2-3)Gal(b1-3)[Fuc(a1-4)]GlcNAc
# How it was run: as §1
# [17] = biological target: Neu5Ac(a2-3)Gal(b1-3)[Fuc(a1-4)]GlcNAc(b1-3)Gal(b1-3)[Fuc(a1-4)]GlcNAc
# How it was run: as §1
# [18] = biological target: Neu5Ac(a2-3)Gal(b1-3)[Fuc(a1-4)]GlcNAc(b1-3)Gal(b1-4)[Fuc(a1-3)]GlcNAc
# How it was run: as §1
# [19] = biological target: Neu5Ac(a2-3)Gal(b1-3)[GlcNAc(b1-6)]GalNAc
# How it was run: as §1
# [20] = biological target: Neu5Ac(a2-3)Gal(b1-3)[Neu5Ac(a2-6)]GalNAc
# How it was run: as §1
# [21] = biological target: Neu5Ac(a2-3)Gal(b1-3)[Neu5Ac(a2-6)]GlcNAc(b1-3)[Fuc(a1-3)[Gal(b1-4)]GlcNAc(b1-6)]Gal(b1-4)Glc
# How it was run: as §1
# [22] = biological target: Neu5Ac(a2-3)Gal(b1-3)]Neu5Ac(a2-3)Gal(b1-4)]GlcNAc
# How it was run: as §1
# Neu5Ac(a2-3)Gal(b1-4)Glc = biological target: Neu5Ac(a2-3)Gal(b1-4)Glc
# How it was run: as §1
# [23] = biological target: Neu5Ac(a2-3)Gal(b1-4)GlcNAc
# How it was run: as §1
# [24] = biological target: Neu5Ac(a2-3)Gal(b1-4)GlcNAc(b1-2)Man
# How it was run: as §1
# [25] = biological target: Neu5Ac(a2-3)Gal(b1-4)GlcNAc(b1-2)Man(a1-3)[GlcNAc(b1-4)][Neu5Ac(a2-3)Gal(b1-4)GlcNAc(b1-2)Man(a1-6)]Man(b1-4)GlcNAc(b1-4)GlcNAc
# How it was run: as §1
# [26] = biological target: Neu5Ac(a2-3)Gal(b1-4)GlcNAc(b1-2)Man(a1-3)[Neu5Ac(a2-3)Gal(b1-4)GlcNAc(b1-2)Man(a1-6)]Man(b1-4)GlcNAc(b1-4)GlcNAc
# How it was run: as §1
# [27] = biological target: Neu5Ac(a2-3)Gal(b1-4)GlcNAc(b1-2)Man(a1-3)[Neu5Ac(a2-3)Gal(b1-4)GlcNAc(b1-2)Man(a1-6)]Man(b1-4)GlcNAc(b1-4)[Fuc(a1-6)]GlcNAc
# How it was run: as §1
# [28] = biological target: Neu5Ac(a2-3)Gal(b1-4)GlcNAc(b1-2)Man(a1-3)[Neu5Ac(a2-6)Gal(b1-4)GlcNAc(b1-2)Man(a1-6)]Man(b1-4)GlcNAc(b1-4)GlcNAc
# How it was run: as §1
# [29] = biological target: Neu5Ac(a2-3)Gal(b1-4)GlcNAc(b1-2)[Neu5Ac(a2-3)Gal(b1-4)GlcNAc(b1-4)]Man(a1-3)[GlcNAc(b1-4)][Neu5Ac(a2-3)Gal(b1-4)GlcNAc(b1-2)[Neu5Ac(a2-3)Gal(b1-4)GlcNAc(b1-6)]Man(a1-6)]Man(b1-4)GlcNAc(b1-4)GlcNAc
# How it was run: as §1
# [30] = biological target: Neu5Ac(a2-3)Gal(b1-4)GlcNAc(b1-2)[Neu5Ac(a2-3)Gal(b1-4)GlcNAc(b1-4)]Man(a1-3)[GlcNAc(b1-4)][Neu5Ac(a2-3)Gal(b1-4)GlcNAc(b1-4)Man(a1-6)]Man(b1-4)GlcNAc(b1-4)GlcNAc
# How it was run: as §1
# [31] = biological target: Neu5Ac(a2-3)Gal(b1-4)GlcNAc(b1-2)[Neu5Ac(a2-3)Gal(b1-4)GlcNAc(b1-6)]Man(a1-6)[Neu5Ac(a2-3)Gal(b1-4)GlcNAc(b1-2)Man(a1-3)]Man(b1-4)GlcNAc(b1-4)GlcNAc
# How it was run: as §1
# [32] = biological target: Neu5Ac(a2-3)Gal(b1-4)GlcNAc(b1-2)[Neu5Ac(a2-3)Gal(b1-4)GlcNAc(b1-6)]Man(a1-6)[Neu5Ac(a2-3)Gal(b1-4)GlcNAc(b1-2)Man(a1-3)][GlcNAc(b1-4)]Man(b1-4)GlcNAc(b1-4)GlcNAc
# How it was run: as §1
# [33] = biological target: Neu5Ac(a2-3)Gal(b1-4)GlcNAc(b1-3)Gal
# How it was run: as §1
# [34] = biological target: Neu5Ac(a2-3)Gal(b1-4)GlcNAc(b1-3)Gal(b1-3)GlcNAc
# How it was run: as §1
# [35] = biological target: Neu5Ac(a2-3)Gal(b1-4)GlcNAc(b1-3)Gal(b1-4)GlcNAc
# How it was run: as §1
# [36] = biological target: Neu5Ac(a2-3)Gal(b1-4)GlcNAc(b1-3)Gal(b1-4)GlcNAc(b1-2)Man(a1-3)[Neu5Ac(a2-3)Gal(b1-4)GlcNAc(b1-3)Gal(b1-4)GlcNAc(b1-2)Man(a1-6)]Man(b1-4)GlcNAc(b1-4)GlcNAc
# How it was run: as §1
# [37] = biological target: Neu5Ac(a2-3)Gal(b1-4)GlcNAc(b1-3)Gal(b1-4)GlcNAc(b1-3)Gal(b1-4)GlcNAc
# How it was run: as §1
# [38] = biological target: Neu5Ac(a2-3)Gal(b1-4)GlcNAc(b1-3)Gal(b1-4)GlcNAc(b1-3)Gal(b1-4)GlcNAc(b1-2)Man(a1-3)[Neu5Ac(a2-3)Gal(b1-4)GlcNAc(b1-3)Gal(b1-4)GlcNAc(b1-3)Gal(b1-4)GlcNAc(b1-2)Man(a1-6)]GalNAc
# How it was run: as §1
# [39] = biological target: Neu5Ac(a2-3)Gal(b1-4)GlcNAc(b1-3)Gal(b1-4)GlcNAc(b1-3)GalNAc
# How it was run: as §1
# [40] = biological target: Neu5Ac(a2-3)Gal(b1-4)GlcNAc(b1-3)Gal(b1-4)GlcNAc(b1-3)[Neu5Ac(a2-3)Gal(b1-4)GlcNAc(b1-3)Gal(b1-4)GlcNAc(b1-6)]GalNAc
# How it was run: as §1
# [41] = biological target: Neu5Ac(a2-3)Gal(b1-4)GlcNAc(b1-3)Gal(b1-4)GlcNAc(b1-6)[Gal(b1-3)]GalNAc
# How it was run: as §1
# [42] = biological target: Neu5Ac(a2-3)Gal(b1-4)GlcNAc(b1-3)Gal(b1-4)[Fuc(a1-3)]GlcNAc
# How it was run: as §1
# [43] = biological target: Neu5Ac(a2-3)Gal(b1-4)GlcNAc(b1-3)GalNAc
# How it was run: as §1
# [44] = biological target: Neu5Ac(a2-3)Gal(b1-4)GlcNAc(b1-3)[Neu5Ac(a2-3)Gal(b1-4)GlcNAc(b1-6)]GalNAc
# How it was run: as §1
binder,measurement,setting,value
PX14375D-bvu-513-34-513 (Bacteroides vulgatus) (protein) TEDTFWKDETDFNLALTSCYTPLKNALNGGYYGTRGVMLRIARADEVDFRNDISDVYTVNRFTNSNTNSLTQGMFYQFYNALYRTNSIMQKLEEKKEQFSTDFQNSVKGECLFIRGFYLFQLAKEFKDAPLRLTASQSPSTFPLAKSSQADIWAQAKEDLKTAASLLPITNKIGKPTQGAAYAALGKIYVYEENWQEAINVLEPLTQNPYTYKLVEDFNWNFDDTHENNAESIFELLIEDVGGTDLWGDGENINSTQSNTRPKEYAAAEVGGWYEANPTQQIMDIFWKEKDKDGNFDYRARCSVAWDYEGCTYYQRPFREVFAQDKWKTYWILKYQNWKTQKDEPAPPKSFINERAIRYADVLLMLAEAYMNKGALDTSIGYINQIRRRANLNDYSGPITKEGVFEDLVHQRAIEFFVEGERFYDLRRWGLLEQTLKTCDDTRYKNYQTGKSDNINKFNYFPIPAKELDTNPLCTPSEGW,glycan array binding signal (z-score),[1],-0.026
same,glycan array binding signal (z-score),[2],0.596
same,glycan array binding signal (z-score),[3],0.28
same,glycan array binding signal (z-score),[4],-0.651
same,glycan array binding signal (z-score),[5],1.03
same,glycan array binding signal (z-score),[6],-0.373
same,glycan array binding signal (z-score),[7],-0.133
same,glycan array binding signal (z-score),[8],0.071
same,glycan array binding signal (z-score),[9],0.513
same,glycan array binding signal (z-score),[10],-0.066
same,glycan array binding signal (z-score),[11],0.172
same,glycan array binding signal (z-score),[12],-0.439
same,glycan array binding signal (z-score),[13],-0.949
same,glycan array binding signal (z-score),[14],-0.432
same,glycan array binding signal (z-score),[15],0.049
same,glycan array binding signal (z-score),[16],1.67
same,glycan array binding signal (z-score),[17],-0.148
same,glycan array binding signal (z-score),[18],-0.122
same,glycan array binding signal (z-score),[19],-0.36
same,glycan array binding signal (z-score),[20],0.074
same,glycan array binding signal (z-score),[21],-0.948
same,glycan array binding signal (z-score),[22],-0.374
same,glycan array binding signal (z-score),Neu5Ac(a2-3)Gal(b1-4)Glc,0.228
same,glycan array binding signal (z-score),[23],-0.226
same,glycan array binding signal (z-score),[24],1.02
same,glycan array binding signal (z-score),[25],-0.161
same,glycan array binding signal (z-score),[26],-0.82
same,glycan array binding signal (z-score),[27],-0.211
same,glycan array binding signal (z-score),[28],-0.548
same,glycan array binding signal (z-score),[29],-0.572
same,glycan array binding signal (z-score),[30],0.054
same,glycan array binding signal (z-score),[31],0.472
same,glycan array binding signal (z-score),[32],-0.238
same,glycan array binding signal (z-score),[33],0.161
same,glycan array binding signal (z-score),[34],0.281
same,glycan array binding signal (z-score),[35],-0.058
same,glycan array binding signal (z-score),[36],0.724
same,glycan array binding signal (z-score),[37],-0.749
same,glycan array binding signal (z-score),[38],0.997
same,glycan array binding signal (z-score),[39],-0.075
same,glycan array binding signal (z-score),[40],0.197
same,glycan array binding signal (z-score),[41],-0.099
same,glycan array binding signal (z-score),[42],-0.682
same,glycan array binding signal (z-score),[43],-0.347
same,glycan array binding signal (z-score),[44],0.547
